We go through 3 molecules from ChEMBL document CHEMBL1782003, “Development and SAR of functionally selective allosteric modulators of GABAA receptors” (Bioorg Med Chem, 2011).

A short description of this series: physchem.

In brackets after ≈: the same amount, converted by molar mass.

For the molecule `COc1ccc(OC)c(-c2cccc3c(N)c(C(=O)NC4(C)CCC4)nnc23)c1`, the solubility was determined as 7.9 µM (≈ 3.1 µg/mL).

With `CCCNC(=O)c1nnc2c(-c3ccc(OC)cc3OC)c(F)ccc2c1N`, the solubility came out at 1.4 µM (≈ 0.538 µg/mL). In turn, `COc1ncccc1-c1cccc2c(N)c3c(nc12)CN(C1CCC1)C3=O` yielded a solubility of 9.4 µM (≈ 3.39 µg/mL).

For orientation: solubility means the dissolved amount per volume that the medium holds. Read a high solubility as a readily soluble substance.
